# The supplement of paper PMC3334620
# The full ranking holds about 33,000 sequences; the median of “E-score (-0.5 to 0.5)” is about -0.016, and the highest 2% start at about 0.3. Some of the results follow.
# Target: T1, Yer184c (UniProt P39961)
# T1 sequence: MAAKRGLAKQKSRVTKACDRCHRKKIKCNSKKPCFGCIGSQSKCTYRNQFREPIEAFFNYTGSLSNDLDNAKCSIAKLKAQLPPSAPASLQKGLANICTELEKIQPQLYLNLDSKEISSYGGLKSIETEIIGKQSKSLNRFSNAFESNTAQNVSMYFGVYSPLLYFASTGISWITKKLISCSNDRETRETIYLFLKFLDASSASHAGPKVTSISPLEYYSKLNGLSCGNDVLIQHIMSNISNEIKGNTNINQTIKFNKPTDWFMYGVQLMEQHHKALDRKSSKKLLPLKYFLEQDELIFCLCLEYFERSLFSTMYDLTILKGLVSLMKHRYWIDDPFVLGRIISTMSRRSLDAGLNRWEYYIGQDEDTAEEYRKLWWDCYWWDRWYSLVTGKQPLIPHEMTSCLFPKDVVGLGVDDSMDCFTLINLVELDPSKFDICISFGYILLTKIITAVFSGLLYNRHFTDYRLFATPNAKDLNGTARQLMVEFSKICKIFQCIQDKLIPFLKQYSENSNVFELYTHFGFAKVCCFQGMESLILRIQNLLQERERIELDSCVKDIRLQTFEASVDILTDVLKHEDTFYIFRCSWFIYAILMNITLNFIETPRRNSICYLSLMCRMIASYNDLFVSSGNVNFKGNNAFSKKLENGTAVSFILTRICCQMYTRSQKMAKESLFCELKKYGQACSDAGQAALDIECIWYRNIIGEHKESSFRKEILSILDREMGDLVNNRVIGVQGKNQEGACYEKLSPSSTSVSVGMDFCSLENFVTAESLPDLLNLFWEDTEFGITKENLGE
# Experiment: PBM E-score (8-mer binding enrichment) (E-score (-0.5 to 0.5)); higher = stronger / more preferred TF binding
# Settings: protein concentration: 100 nM; construct: GST-full length
# In short: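 Detection of bound protein used fluorescent anti-GST, with scans normalised by masliner. The proteins were GST-tagged yeast transcription factors applied at about 100-200 nM to universal all-10-mer Agilent arrays made double-stranded by primer extension. Each ungapped eight-base word, pooled with its reverse complement, was scored with an E-score from the Universal PBM Analysis Suite.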
row,Sequence,PBM E-score
1,CTTCCATA,-0.0174
2,CAGGAAGG,-0.268
3,CAGGTAGA,-0.115
4,ACCCCAGT,-0.219
5,AGATGATG,-0.0716
6,GGCCGTTA,0.122
7,GGGGGGCA,-0.462
8,TGACCCCA,-0.145
9,GGCTAGCC,-0.111
10,AGTTAACG,0.153
11,ACGGGCTG,-0.045
12,TCGGTAGA,0.307
13,CAGTCTAA,0.0414
14,TAAGCGTA,-0.233
15,CGCGGTTC,0.123
16,GAGGCACA,-0.165
17,AGGAGGCG,-0.285
18,ACTTGTAC,-0.112
19,CCTCTTCC,-0.198
20,GACGAACC,-0.00982
21,ATGGTAGC,-0.152
22,AGGGGCTC,-0.341
23,TACCCTCA,-0.158
24,GCCCAGTA,-0.14
25,GTTACAAA,0.251

row,Sequence,PBM E-score
1,AAGGTACC,-0.0708
2,CCAGCGCA,-0.153
3,CGCTTATC,-0.104
4,ACCCGTAG,-0.34
5,ACAACCTC,-0.285
6,CAGGGGCG,-0.264
7,ATCGCAAG,-0.03
8,AACGACCT,-0.125
9,CATTGCGG,0.0483
10,CTGTGTGA,0.0173
11,TTCATGAA,0.0516
12,GCGTGTGA,-0.0408
13,ATTGCCGA,0.311
14,AGCCTGCA,-0.0587
15,CTATATAG,-0.109
16,CCAATTTA,0.144
17,AGAATGGA,0.111
18,CTTCCCCA,-0.2
19,GGTGTACA,-0.192
20,CTAAAGTA,-0.0708
21,CCAGTAAC,0.0685
22,AACGCCTC,-0.271
23,GCCCCGAA,0.0495
24,CTATGATA,0.162
25,CAGCTCTA,-0.245

row,Sequence,PBM E-score
1,AAACGGGA,0.0951
2,AAAAATCG,0.16
3,AAGCTCCT,-0.237
4,AAGTTCCG,0.307
5,GTGCAGGA,-0.147
6,TACTGAGA,-0.0163
7,ACTTCTTA,0.00115
8,CAGCGCGA,-0.0936
9,GGTCTCTA,-0.0615
10,AGCATAGC,-0.255
11,CGCTACCG,0.0261
12,AGCGATCA,-0.088
13,GGAGTAAC,0.0833
14,AAAGCAGG,-0.0309
15,GCATCCCA,-0.26
16,GGTTGGTA,0.0597
17,CATGGGGG,-0.317
18,TGCCGGCA,0.431
19,GTACTCAA,-0.0651
20,ACGTGGGA,-0.288
21,AATTCGAT,0.184
22,AGGCTATC,0.0945
23,AGAGGTTA,-0.0189
24,AATCACCG,0.106
25,AATAGGAA,0.183

row,Sequence,PBM E-score
1,TGCCGAAA,0.371
2,CCGCTATA,-0.0173
3,CGATGCCC,-0.265
4,ATTGGAGA,0.0709
5,CGGTGCGA,0.00174
6,AATTGGAA,0.11
7,ACAACTCA,0.104
8,CCAGACGG,-0.155
9,CAGTGTGC,-0.293
10,ATAAGATA,0.145
11,AGGATGGC,0.0583
12,ACACTCCG,-0.0224
13,CAGAGTGA,-0.114
14,AACTCGAT,0.12
15,AAGACCAC,-0.189
16,CTCATTGA,-0.069
17,GTAGCCAA,-0.193
18,CCAGAGAG,-0.195
19,CGCTGGCC,-0.269
20,AGTATAAG,-0.00431
21,CGACAGTC,-0.182
22,AGCAGCTG,0.0525
23,CGAGAGTA,0.243
24,AAACCGTT,0.0314
25,GTAGGCGA,-0.203

row,Sequence,PBM E-score
1,CAACATCA,0.152
2,TAGGTACA,-0.112
3,CCTGCGGA,0.0888
4,CGCTGCCA,-0.234
5,GTCTTTGA,-0.0188
6,CCACGATC,0.109
7,ACGTTTAT,0.0798
8,AGCAGACG,-0.117
9,CGATAACG,-0.188
10,ACCAAAAT,0.0978
11,CATGCATC,0.126
12,ACCCCCCC,-0.413
13,ACCCCGGC,0.0581
14,CTCAAGTA,-0.154
15,GATAACGC,0.0614
16,AGGCCAGC,-0.242
17,CAGATACA,0.138
18,GAATACGA,0.118
19,TCACATGA,-0.148
20,CACGAGTA,-0.0697
21,AACTACTG,-0.0473
22,GGGGACAA,-0.0319
23,ATGGATAG,-0.0469
24,ATAGACAA,0.0858
25,AGTTGCGC,-0.0234

row,Sequence,PBM E-score
1,CCCCTGCC,-0.291
2,AACAGGGT,-0.172
3,GATGAGGA,-0.0209
4,GGATTGAA,0.221
5,AGGCGTTC,-0.172
6,GTATGAAA,0.103
7,TATAGACA,0.195
8,ATTCGAGC,-0.0625
9,GGGGGTAA,-0.348
10,AAGTTAGT,0.184
11,ACAGGGTA,-0.16
12,GGGGGGGA,-0.417
13,AAGTAACG,-0.00733
14,AGACAAGC,-0.0657
15,CTTCGGAC,0.325
16,TGATACCA,0.0294
17,TCGATGCA,-0.0955
18,AATTGGGT,0.097
19,GAGAGATC,-0.164
20,AAATCGAC,0.0368
21,AAACGCTC,-0.0382
22,CGTAGCAC,0.00727
23,ATCGCCCA,-0.266
24,CTGACGTC,-0.0569
25,ATGGATTA,-0.155

row,Sequence,PBM E-score
1,ACATGGCT,-0.242
2,CCTCATAA,0.0128
3,AGTTGGTG,-0.115
4,GCGGCGAC,0.117
5,ACAACCAC,0.148
6,CCACCGGA,0.346
7,ATCATTGC,-0.139
8,CCTCGCAC,-0.0957
9,TCTGACCA,0.142
10,AGCGCTCG,0.00391
11,ACTCTGGG,-0.149
12,AGCCGGCG,0.372
13,ACACGACA,-0.00801
14,TCCGTAAA,0.303
15,GTAGAGCA,-0.191
16,CCCTCGGA,0.237
17,CAGGCCGA,0.108
18,ACAACGAT,0.135
19,CGACCCAG,-0.134
20,CTTCTCAC,0.0389
21,GAAACGCC,0.158
22,AGTTTCGG,0.232

# Rewritten as tab-separated lines: entries from further up
row	Sequence	PBM E-score
11	ACTCTGGG	-0.149
12	AGCCGGCG	0.372
13	ACACGACA	-0.00801
14	TCCGTAAA	0.303
15	GTAGAGCA	-0.191
16	CCCTCGGA	0.237
